# In all, about 330,000 compounds went through this assay and about 610 (0.18%) were called active. This list was built around the results that the source calls inconclusive (neither active nor inactive); the mix of calls is not that of the screen. Calls come from the whole dose curve. Where the call is inconclusive, the potency comes from a doubtful curve fit.
# Test: qHTS of Yeast-based Assay for SARS-CoV PLP; note: nearly all actives have a fitted effect of over 55% in size; for activity, positive = growth rescue: 0% is about no effect
# Details: S. cerevisiae expressing SARS-CoV PLpro; Potency: growth rescue; activity, positive = growth rescue: at 32.9 µM (top of the series)
# Potency is the fitted concentration of half-maximal effect.
Compound,Potency,"activity, positive = growth rescue"
O=C(CCCCCCCCC(=O)N/N=C/c1ccco1)N/N=C/c1ccco1,"inconclusive: 2.24 µM [activator, partial curve]",–
CCOC(=O)c1c(NC(=O)COC(=O)c2nc(Cl)ccc2Cl)sc(C(=O)N(C)C)c1C,"inconclusive: 4.47 µM [activator, single point]",–
CC1(C)CC(=O)C2=C(C1)N(Cc1ccco1)C(=O)C2(NC(=O)c1ccc(Cl)cc1Cl)C(F)(F)F (configuration not stated),"inconclusive: 3.16 µM [activator, single point]",–
O=C(N/N=C/c1ccccc1O)C(=O)Nc1ccccn1,–,inactive: 0.32%
COc1cc(N=c2ssnc2Cl)cc(OC)c1OC,–,inactive: -23.9%
Clc1ccc(OCCCCCN2CCOCC2)cc1,–,inactive: -1.35%
Cc1sc2ncnc(N/N=C/c3ccccc3O)c2c1C,active: 1.12 µM,–
Cc1cccc(CNc2ccc(C(CC(N)=O)NC(=O)c3ccccc3)cc2[N+](=O)[O-])c1 (configuration not stated),–,inactive: -0.295%
CCCCCCN(C(=O)CCCCCN1C(=O)NC(c2ccc(-c3ccccc3)cc2)C(C(=O)OCc2ccccc2)=C1C)C(C(=O)NCCCC)c1ccc(OCC(=O)OC)c(C(=O)OC)c1 (configuration not stated),–,inactive: 1.63%
COc1ccccc1NC(=O)N(Cc1cc2cc(OC)c(OC)cc2[nH]c1=O)CC1CCCO1 (configuration not stated),–,inactive: 12.8%
O=C(O)C1=CC2c3ccccc3C1c1ccccc12,–,inactive: -0.371%
COc1ccccc1NCC(=O)N/N=C/C=C/c1ccccc1,"inconclusive: 20 µM [activator, single point]",–
CCN(CC)CCNc1nc2ccccc2n1C,"inconclusive: 3.16 µM [activator, single point]",–
Cc1ccc(-c2nnc(SCC#CCOC(=O)c3cccs3)o2)cc1,"inconclusive: 3.16 µM [activator, single point]",–
O=C(/C=C/c1cccc([N+](=O)[O-])c1)N1CCN(Cc2ccc3c(c2)OCO3)CC1,"inconclusive: 3.55 µM [activator, partial curve, poor fit]",–
COc1cc(CNc2ccc3[nH]c(=O)[nH]c3c2)cc(Br)c1OCc1ccccc1F,"inconclusive: 0.316 µM [activator, full curve, poor fit]",–
C/C(=N\NC(=S)NCc1ccccc1)c1ccc(C(C)(C)C)cc1,"inconclusive: 11.2 µM [activator, single point]",–
CN1CCN(c2ccc(CNS(=O)(=O)Cc3cccc(C(F)(F)F)c3)cc2)CC1,"inconclusive: 20 µM [activator, single point]",–
COc1cccc(/C=N/NC(=O)c2ccc(-c3ccccc3)cc2)c1O,"inconclusive: 2.51 µM [activator, single point]",–
CCCn1cc(NC(=O)c2cc(-c3ccccc3)on2)cn1,–,inactive: -16.4%
O=C(NN1C(=O)/C(=C/c2ccc(O)c(O)c2)SC1=S)c1ccccc1,"inconclusive: 20 µM [activator, single point]",–
NC(=S)N=Nc1c(O)[nH]c2ccccc12,"inconclusive: 20 µM [activator, single point]",–
Cc1cc(C)c(NC(=O)c2ccc3c(c2)CCN3S(C)(=O)=O)c(C)c1,–,inactive: -0.907%
COCC(=O)N1CCC(Oc2ccc(C(=O)N3CCCCCCC3)cc2)CC1,–,inactive: 0.127%

# Given with tabs: part of the list above.
Compound	Potency	activity, positive = growth rescue
O=C(O)C1=CC2c3ccccc3C1c1ccccc12	–	inactive: -0.371%
COc1ccccc1NCC(=O)N/N=C/C=C/c1ccccc1	inconclusive: 20 µM [activator, single point]	–
CCN(CC)CCNc1nc2ccccc2n1C	inconclusive: 3.16 µM [activator, single point]	–
Cc1ccc(-c2nnc(SCC#CCOC(=O)c3cccs3)o2)cc1	inconclusive: 3.16 µM [activator, single point]	–

# Remaining list, next part.

Compound,Potency,"activity, positive = growth rescue"
Cc1cc(-c2n[nH]c(=S)n2CC(C)C)cs1,"inconclusive: 20 µM [activator, single point]",–
C/C(=N/NC(=O)c1ccncc1)c1cc2ccc(O)cc2oc1=O,"inconclusive: 20 µM [activator, single point]",–
CCOC(=O)c1ccc(COC(=O)c2ccc3c(c2)-c2ccccc2C3=O)cc1,"inconclusive: 10 µM [activator, single point]",–
Cc1ccc(N2CN(Cc3ccco3)CNC2=S)c(C)c1,"inconclusive: 20 µM [activator, single point]",–
Cc1[nH]ncc1-c1nc2ccccc2[nH]1,–,inactive: 1.26%
Cc1cc(C)n(-c2cc(N3CCN(C(=O)c4cccc(Br)c4)CC3)ccc2[N+](=O)[O-])n1,–,inactive: -0.182%
C/C=C(/C)C(=O)OC(C)(C)[C@@H]1Cc2c(ccc3ccc(=O)oc23)O1,"inconclusive: 10 µM [activator, partial curve]",–
CC(=O)Nc1ccc(C(=O)Nc2ccncc2)cc1,–,inactive: 0.0384%
O=C(N(c1ccccn1)c1ccccn1)C12CC3CC(CC(Cl)(C3)C1)C2,"inconclusive: 3.55 µM [activator, single point]",–
COc1ccc(/C=N/NC(=O)C(C)n2cnc3ccccc3c2=O)cc1OC (configuration not stated),–,inactive: 4.82%
Cc1cccnc1N(C(=O)Nc1cccc(Cl)c1)C1=NCC(C)(C)S1,"inconclusive: 8.91 µM [activator, partial curve]",–
CCOC(=O)N1CCN(C(=O)c2ccccc2NC(C)=O)CC1,–,inactive: 0.113%
COc1cc(OC)c(C(=O)OCC(=O)NC2CCCC2)cc1OC,–,inactive: 1.67%
CC(C)CC(=O)NC(=S)N1CCN(c2ccc([N+](=O)[O-])cc2Cl)CC1,"inconclusive: 3.98 µM [activator, single point]",–
Cc1ccc(S(=O)(=O)N(CC(=O)NC2CCCC2)c2cccc(C)c2)cc1,"inconclusive: 20 µM [activator, single point]",–
CCOC(=O)C(O)(CC(=O)c1ccc(OC)cc1)C(F)(F)F (configuration not stated),"inconclusive: 2.82 µM [activator, full curve, poor fit]",–
CC1(c2ccc(Cl)cc2Cl)NC(=O)N(CC(=O)Nc2ccc3[nH]c(=O)[nH]c3c2)C1=O (configuration not stated),–,inactive: -3.78%
NC(=O)c1[nH]cnc1N,"inconclusive: 17.8 µM [activator, single point]",–
CCOc1ccc(NC(=O)CCNC(=O)Cn2ccc3ccccc3c2=O)cc1,"inconclusive: 2.24 µM [activator, partial curve]",–
C/C(=N\NC(=S)NC1CCCCC1)c1ccc(C#N)cc1,active: 15.8 µM,–
CN1CCc2cccc3c2C1Cc1ccc(O)c(O)c1-3 (configuration not stated),–,inactive: -19.2%
CCC(=O)N1CCc2cc(S(=O)(=O)Nc3ccccc3C)ccc21,–,inactive: 1.53%
CC(C)c1ccc(NC(=O)CSc2nc3ccccc3nc2N2CCCC2)cc1,"inconclusive: 17.8 µM [activator, single point]",–
CCC1CCC2(CC1)NNC(=S)NN2,active: 8.91 µM,–

Compound,Potency,"activity, positive = growth rescue"
O=C1CC(=O)N(c2ccccc2)N1c1ccccc1,"inconclusive: 22.4 µM [activator, single point]",–
Cn1cc(/C=N/n2cnc3scc(-c4ccccc4)c3c2=O)c2ccccc21,"inconclusive: 17.8 µM [activator, single point]",–
N#Cc1ccc(CN(c2ccncc2)S(=O)(=O)c2ccccc2)cc1,"inconclusive: 22.4 µM [activator, single point]",–
COc1cccc(CN(CC2CCCO2)S(=O)(=O)c2ccc(-n3cnnn3)c(OC)c2)c1 (configuration not stated),–,inactive: 0.341%
O=C(COc1cccc2cccnc12)N/N=C1\SCC(=O)N1Cc1ccco1,"inconclusive: 2.82 µM [activator, single point]",–
CC1CN(c2nc3c(c(=O)[nH]c(=O)n3C)n2Cc2ccccc2F)CC(C)O1 (configuration not stated),"inconclusive: 1 µM [activator, partial curve]",–
Cc1cccc(C)c1NC(=S)NN1CCN(C)CC1,"inconclusive: 4.47 µM [activator, single point]",–
CCN(CC)c1ccc(/C=N/NC(=O)c2nnn(-c3nonc3N)c2C(C)C)c(O)c1,"inconclusive: 4.47 µM [activator, single point]",–
CCc1ccc(NC(=O)C(=O)NCC2CCCN2S(=O)(=O)c2cccs2)cc1 (configuration not stated),–,inactive: -1.78%
Cc1nc2ccc([N+](=O)[O-])cc2[nH]1,–,inactive: -0.718%
COc1ccc(NC(=O)CCNS(=O)(=O)c2cccc3nsnc23)cc1OC,"inconclusive: 17.8 µM [activator, partial curve]",–
Cc1cc(C)c2nc(NNC(=O)c3cc(-c4cccs4)nc4ccccc34)sc2c1,"inconclusive: 6.31 µM [activator, partial curve]",–
CSc1nnc(-c2cc3ccccc3cc2O)n1C,"inconclusive: 3.98 µM [activator, single point]",–
O=C(NCCCc1ccccc1)C(=O)c1c[nH]c2ccccc12,"inconclusive: 4.47 µM [activator, single point]",–
COc1cc(C2C3=C(CCCC3=O)OC3=C2C(=O)CCC3)ccc1OCC(=O)Nc1ccccc1,"inconclusive: 0.398 µM [activator, full curve, poor fit]",–
COc1ccccc1-n1cnnc1SCC(=O)N1CC(=O)Nc2ccccc21,"inconclusive: 4.47 µM [activator, single point]",–
CCN1C[C@@H]2[C@@H]3C(=O)N(C)C(=O)[C@@H]3[C@](CC)(C(=O)OC)N2C1=NC,active: 3.55 µM,–
CN(CCOc1ccc(-c2ccn(S(=O)(=O)c3c(Cl)cccc3Cl)n2)cc1)c1ccccn1,"inconclusive: 15.8 µM [activator, single point]",–
CCOC(=O)Cc1csc(NC(=O)CSc2cc(Cl)ccc2Cl)n1,–,inactive: 13.3%
COC(=O)c1sc(Nc2ccccc2)nc1C,"inconclusive: 3.55 µM [activator, partial curve]",–
Cc1ccc(OCCCc2c(C)n[nH]c2C)cc1,"inconclusive: 11.2 µM [activator, single point]",–
CC(=O)NS(=O)(=O)c1ccc(N/C(N)=N/c2nc(C)cc(C)n2)cc1,"inconclusive: 11.2 µM [activator, single point]",–
CC1Sc2ccc(S(=O)(=O)CCC(=O)N3CCCC3)cc2NC1=O (configuration not stated),"inconclusive: 12.6 µM [activator, single point]",–
COc1ccc2c(c1)C(=O)OC2CC(=O)O (configuration not stated),"inconclusive: 11.2 µM [activator, single point]",–

# From PubChem BioAssay AID485353 (National Center for Advancing Translational Sciences (NCATS), 2010)
